Literature values in patent US20120070377A1, “COMPOUNDS AND BIOLOGICAL MATERIALS AND USES THEREOF” (priority 2009, published 2012).
For at least one compound, name, drawing or mass did not settle the structure.

Conditions: background statement; cited from earlier work

Which quantum yield does the source give for `Oc1cccc(-c2c3nc(c(-c4cccc(O)c4)c4ccc([nH]4)c(-c4cccc(O)c4)c4nc(c(-c5cccc(O)c5)c5ccc2[nH]5)CC4)C=C3)c1` [Foscan] here?
Its quantum yield is 0.43.
